In assay [1] the target is T1, tryptophanyl-tRNA synthetase (WARS), endogenous (human (endogenous in A375)) (UniProt P23381).
T1 sequence: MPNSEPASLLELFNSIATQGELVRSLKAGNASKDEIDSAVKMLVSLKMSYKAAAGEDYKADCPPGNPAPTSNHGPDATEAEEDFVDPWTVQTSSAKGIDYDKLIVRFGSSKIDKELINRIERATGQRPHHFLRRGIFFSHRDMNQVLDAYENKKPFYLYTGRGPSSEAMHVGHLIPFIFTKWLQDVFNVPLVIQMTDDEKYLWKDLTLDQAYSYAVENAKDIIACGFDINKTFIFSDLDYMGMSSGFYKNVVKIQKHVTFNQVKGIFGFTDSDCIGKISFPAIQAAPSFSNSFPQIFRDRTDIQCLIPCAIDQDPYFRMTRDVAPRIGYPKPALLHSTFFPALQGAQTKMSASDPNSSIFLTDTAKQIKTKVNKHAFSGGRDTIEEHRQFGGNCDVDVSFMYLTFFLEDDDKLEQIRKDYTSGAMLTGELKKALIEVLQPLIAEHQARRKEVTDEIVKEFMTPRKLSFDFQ
Briefly: co-IP; A375 cells treated with IFN-γ for 48 h, cross-linked with 0.1% formaldehyde; lysis in 50 mM Tris-HCl pH 8, 150 mM NaCl, 0.5% Nonidet P-40; beads with cross-linked anti-WARS, anti-STAT1 or control antibody overnight at 4 °C, six washes; Western blots of WARS and STAT1.

Amino acid sequences for entries named in this document (tags omitted).
UniProt P42224: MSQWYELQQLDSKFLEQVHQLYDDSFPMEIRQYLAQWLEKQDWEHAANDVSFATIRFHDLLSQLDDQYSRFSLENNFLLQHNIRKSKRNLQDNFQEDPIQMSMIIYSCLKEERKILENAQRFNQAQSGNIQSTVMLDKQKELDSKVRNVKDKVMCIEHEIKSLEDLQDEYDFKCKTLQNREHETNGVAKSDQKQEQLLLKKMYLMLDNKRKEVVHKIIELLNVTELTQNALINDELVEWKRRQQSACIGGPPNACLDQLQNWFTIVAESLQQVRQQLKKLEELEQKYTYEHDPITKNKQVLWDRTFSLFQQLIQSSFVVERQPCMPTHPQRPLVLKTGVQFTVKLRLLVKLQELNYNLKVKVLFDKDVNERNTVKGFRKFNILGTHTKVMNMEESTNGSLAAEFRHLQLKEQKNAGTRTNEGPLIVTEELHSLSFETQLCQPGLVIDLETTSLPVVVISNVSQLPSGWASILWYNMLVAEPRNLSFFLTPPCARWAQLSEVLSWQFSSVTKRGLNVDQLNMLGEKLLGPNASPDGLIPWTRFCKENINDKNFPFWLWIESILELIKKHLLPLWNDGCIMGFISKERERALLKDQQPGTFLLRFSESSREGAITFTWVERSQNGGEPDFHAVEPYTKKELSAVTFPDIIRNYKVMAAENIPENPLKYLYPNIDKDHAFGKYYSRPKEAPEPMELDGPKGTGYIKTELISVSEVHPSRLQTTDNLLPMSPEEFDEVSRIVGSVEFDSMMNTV

Assay [2] deals with Signal transducer and activator of transcription 1 (STAT1), endogenous (human (endogenous in A375)) (UniProt P42224). The assay is described as above.

These are yes or no findings as the source states them, for the method shown. Binding seen in cells or lysates may run through a third protein. Some entries that bind do so weakly or less than the wild type.

Take “Signal transducer and activator of transcription 1 (STAT1), endogenous (from UniProt P42224 1-750)”: in assay [1], the binding entry was “binds”.

B1: tryptophanyl-tRNA synthetase (WARS), endogenous (enzyme, UniProt P23381 1-471)
chain: T1 sequence
On to B1, for which the binding result in assay [2] is recorded as “binds”.

(Values after publication PMC10813977.)
